From the supplement of paper PMC6411743
± gives the standard deviation of the averaged measurements. Only a part is listed here, and it is no random draw.

Protein sequences, listed by entry. Tags and fused reporters are not part of them. Lines headed by an entry give the natural chain unless they say otherwise; changes in a name come on top.
UniProt Q92643: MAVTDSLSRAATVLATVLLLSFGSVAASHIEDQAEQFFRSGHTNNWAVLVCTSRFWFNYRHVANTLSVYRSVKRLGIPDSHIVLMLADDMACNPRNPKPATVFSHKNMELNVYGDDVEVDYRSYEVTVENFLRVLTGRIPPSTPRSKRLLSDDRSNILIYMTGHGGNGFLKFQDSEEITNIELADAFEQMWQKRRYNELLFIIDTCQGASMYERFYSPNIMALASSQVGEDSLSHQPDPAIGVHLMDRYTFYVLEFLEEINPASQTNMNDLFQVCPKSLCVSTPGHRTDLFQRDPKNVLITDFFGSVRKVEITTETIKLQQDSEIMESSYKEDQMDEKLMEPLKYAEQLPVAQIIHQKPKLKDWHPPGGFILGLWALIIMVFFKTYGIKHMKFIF
UniProt Q92597: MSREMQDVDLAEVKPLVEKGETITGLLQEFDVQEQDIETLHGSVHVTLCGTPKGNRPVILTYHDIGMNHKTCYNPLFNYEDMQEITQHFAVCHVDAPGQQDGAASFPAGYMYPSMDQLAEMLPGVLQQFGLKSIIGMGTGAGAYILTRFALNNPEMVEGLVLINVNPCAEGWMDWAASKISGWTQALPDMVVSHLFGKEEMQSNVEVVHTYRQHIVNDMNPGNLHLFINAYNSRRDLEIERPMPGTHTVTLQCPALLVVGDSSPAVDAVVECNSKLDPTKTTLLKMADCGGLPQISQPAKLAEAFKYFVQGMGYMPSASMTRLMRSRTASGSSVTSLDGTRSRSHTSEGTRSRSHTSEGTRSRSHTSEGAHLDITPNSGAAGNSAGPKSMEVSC
UniProt Q92890: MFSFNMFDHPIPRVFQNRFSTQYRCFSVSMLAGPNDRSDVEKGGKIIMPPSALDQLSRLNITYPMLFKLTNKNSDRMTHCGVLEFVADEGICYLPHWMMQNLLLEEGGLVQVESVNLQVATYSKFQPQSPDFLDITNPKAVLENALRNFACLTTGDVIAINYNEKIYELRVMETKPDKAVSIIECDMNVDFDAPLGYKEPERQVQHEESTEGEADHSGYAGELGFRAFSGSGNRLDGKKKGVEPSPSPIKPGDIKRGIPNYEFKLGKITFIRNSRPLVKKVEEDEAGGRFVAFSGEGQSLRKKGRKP
UniProt Q8TCA0: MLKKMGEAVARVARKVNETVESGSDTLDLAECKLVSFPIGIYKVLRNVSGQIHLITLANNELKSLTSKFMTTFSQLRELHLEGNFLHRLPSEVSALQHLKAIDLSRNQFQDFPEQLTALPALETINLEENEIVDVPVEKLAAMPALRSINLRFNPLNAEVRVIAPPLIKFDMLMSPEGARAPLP
UniProt Q8WVX9: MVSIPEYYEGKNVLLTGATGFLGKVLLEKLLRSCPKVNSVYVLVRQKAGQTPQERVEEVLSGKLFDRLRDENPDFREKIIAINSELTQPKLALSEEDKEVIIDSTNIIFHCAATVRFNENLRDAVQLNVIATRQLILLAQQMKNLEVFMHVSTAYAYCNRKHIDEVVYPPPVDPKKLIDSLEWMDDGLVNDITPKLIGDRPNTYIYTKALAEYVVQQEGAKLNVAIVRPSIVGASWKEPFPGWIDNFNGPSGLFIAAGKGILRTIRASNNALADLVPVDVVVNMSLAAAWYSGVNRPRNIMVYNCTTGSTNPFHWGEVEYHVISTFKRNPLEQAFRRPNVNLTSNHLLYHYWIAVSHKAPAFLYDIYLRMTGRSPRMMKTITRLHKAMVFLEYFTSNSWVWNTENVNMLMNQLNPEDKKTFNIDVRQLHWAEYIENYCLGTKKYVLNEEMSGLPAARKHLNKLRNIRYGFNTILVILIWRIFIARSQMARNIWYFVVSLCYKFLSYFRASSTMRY
UniProt Q8TEW0: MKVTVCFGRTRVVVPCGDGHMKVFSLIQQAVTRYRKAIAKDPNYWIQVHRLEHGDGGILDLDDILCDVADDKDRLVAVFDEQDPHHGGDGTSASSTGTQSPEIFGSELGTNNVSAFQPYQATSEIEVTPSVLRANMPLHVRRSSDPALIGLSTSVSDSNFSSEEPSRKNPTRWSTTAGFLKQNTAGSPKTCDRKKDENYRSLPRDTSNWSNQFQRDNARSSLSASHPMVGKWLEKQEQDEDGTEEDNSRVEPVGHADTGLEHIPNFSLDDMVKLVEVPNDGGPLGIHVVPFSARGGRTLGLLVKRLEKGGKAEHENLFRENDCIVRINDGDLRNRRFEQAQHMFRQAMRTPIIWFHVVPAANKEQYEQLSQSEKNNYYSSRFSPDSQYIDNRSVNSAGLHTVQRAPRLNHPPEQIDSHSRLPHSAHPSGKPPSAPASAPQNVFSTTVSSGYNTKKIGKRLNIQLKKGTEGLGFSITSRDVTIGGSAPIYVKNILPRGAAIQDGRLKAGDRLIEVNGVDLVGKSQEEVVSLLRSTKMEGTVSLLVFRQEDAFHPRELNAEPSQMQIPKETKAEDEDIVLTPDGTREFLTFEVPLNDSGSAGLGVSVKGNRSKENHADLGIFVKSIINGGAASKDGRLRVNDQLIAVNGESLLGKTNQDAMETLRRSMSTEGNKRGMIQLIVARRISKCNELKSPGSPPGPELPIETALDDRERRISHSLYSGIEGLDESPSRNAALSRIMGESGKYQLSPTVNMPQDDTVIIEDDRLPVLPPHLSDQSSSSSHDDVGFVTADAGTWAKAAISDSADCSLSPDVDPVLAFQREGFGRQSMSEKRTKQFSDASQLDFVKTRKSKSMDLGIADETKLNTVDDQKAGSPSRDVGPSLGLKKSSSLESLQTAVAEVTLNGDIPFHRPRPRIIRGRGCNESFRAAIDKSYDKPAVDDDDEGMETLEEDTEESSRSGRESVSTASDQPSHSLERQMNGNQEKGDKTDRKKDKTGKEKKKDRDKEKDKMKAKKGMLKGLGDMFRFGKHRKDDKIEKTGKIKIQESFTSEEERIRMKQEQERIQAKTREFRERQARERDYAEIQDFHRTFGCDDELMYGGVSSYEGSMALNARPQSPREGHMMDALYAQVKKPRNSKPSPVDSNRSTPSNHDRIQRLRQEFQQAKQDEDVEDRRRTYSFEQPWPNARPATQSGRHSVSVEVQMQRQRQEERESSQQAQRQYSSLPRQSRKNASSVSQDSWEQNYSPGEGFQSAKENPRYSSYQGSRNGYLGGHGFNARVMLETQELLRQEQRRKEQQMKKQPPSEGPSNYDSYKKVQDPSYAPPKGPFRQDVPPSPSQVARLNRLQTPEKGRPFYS
UniProt Q8WY22: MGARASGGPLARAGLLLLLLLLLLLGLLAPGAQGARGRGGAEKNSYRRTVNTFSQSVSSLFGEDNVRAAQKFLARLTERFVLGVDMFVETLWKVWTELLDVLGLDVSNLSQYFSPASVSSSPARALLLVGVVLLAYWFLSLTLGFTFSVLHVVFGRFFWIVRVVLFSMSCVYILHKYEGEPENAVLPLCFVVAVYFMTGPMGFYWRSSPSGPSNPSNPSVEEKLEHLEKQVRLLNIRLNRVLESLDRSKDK
UniProt Q8WWI5: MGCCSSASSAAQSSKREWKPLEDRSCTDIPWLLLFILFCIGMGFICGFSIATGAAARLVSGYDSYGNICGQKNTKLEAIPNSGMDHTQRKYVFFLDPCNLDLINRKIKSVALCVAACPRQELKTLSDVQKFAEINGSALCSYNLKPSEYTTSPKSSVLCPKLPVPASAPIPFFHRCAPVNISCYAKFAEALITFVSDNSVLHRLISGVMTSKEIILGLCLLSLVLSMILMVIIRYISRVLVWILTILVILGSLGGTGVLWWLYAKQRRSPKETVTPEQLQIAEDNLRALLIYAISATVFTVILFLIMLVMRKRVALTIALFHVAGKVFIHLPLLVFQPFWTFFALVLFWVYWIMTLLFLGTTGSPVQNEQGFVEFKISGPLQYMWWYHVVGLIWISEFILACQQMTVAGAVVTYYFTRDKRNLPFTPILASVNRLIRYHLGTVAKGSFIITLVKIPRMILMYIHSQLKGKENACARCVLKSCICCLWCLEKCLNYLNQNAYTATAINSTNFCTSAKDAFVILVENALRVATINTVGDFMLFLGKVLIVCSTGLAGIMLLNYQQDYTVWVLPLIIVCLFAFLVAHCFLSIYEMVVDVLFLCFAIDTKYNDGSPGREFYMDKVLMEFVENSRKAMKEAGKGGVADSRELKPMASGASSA
UniProt Q92623: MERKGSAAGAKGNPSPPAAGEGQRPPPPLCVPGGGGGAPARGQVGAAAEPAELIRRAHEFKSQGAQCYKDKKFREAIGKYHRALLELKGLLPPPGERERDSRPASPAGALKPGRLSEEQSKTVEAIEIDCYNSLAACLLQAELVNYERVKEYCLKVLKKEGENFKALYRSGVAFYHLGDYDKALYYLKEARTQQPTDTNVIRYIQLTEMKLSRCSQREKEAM
UniProt Q8WUI4: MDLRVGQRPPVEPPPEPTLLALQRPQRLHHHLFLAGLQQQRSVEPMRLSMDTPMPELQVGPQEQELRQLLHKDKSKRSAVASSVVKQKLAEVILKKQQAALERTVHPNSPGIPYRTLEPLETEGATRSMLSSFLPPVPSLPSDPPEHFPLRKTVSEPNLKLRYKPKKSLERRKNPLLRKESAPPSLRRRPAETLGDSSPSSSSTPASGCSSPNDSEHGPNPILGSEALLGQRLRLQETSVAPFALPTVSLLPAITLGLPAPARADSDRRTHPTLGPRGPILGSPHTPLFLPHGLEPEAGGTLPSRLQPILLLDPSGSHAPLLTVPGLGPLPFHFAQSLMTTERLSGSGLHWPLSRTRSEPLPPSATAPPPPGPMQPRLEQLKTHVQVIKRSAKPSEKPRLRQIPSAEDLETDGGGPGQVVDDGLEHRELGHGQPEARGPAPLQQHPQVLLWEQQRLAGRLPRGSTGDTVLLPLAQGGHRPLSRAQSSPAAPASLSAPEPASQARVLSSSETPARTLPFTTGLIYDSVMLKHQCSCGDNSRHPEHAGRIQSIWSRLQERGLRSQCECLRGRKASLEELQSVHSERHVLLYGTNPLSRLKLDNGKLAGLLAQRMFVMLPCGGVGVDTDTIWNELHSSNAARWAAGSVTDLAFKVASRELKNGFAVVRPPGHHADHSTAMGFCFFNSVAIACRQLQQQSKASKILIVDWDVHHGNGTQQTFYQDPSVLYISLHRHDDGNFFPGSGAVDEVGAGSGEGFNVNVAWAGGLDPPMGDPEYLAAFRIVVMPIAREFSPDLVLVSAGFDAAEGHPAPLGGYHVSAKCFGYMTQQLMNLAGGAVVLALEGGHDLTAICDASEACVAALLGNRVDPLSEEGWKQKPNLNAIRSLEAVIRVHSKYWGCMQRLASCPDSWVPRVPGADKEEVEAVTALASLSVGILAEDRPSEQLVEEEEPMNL
UniProt Q8WU39: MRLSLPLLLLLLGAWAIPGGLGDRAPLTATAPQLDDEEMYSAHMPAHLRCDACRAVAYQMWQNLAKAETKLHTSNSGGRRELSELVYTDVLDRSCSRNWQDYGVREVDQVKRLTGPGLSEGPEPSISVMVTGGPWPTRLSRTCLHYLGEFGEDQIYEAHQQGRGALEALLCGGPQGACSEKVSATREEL
UniProt Q8TDW0: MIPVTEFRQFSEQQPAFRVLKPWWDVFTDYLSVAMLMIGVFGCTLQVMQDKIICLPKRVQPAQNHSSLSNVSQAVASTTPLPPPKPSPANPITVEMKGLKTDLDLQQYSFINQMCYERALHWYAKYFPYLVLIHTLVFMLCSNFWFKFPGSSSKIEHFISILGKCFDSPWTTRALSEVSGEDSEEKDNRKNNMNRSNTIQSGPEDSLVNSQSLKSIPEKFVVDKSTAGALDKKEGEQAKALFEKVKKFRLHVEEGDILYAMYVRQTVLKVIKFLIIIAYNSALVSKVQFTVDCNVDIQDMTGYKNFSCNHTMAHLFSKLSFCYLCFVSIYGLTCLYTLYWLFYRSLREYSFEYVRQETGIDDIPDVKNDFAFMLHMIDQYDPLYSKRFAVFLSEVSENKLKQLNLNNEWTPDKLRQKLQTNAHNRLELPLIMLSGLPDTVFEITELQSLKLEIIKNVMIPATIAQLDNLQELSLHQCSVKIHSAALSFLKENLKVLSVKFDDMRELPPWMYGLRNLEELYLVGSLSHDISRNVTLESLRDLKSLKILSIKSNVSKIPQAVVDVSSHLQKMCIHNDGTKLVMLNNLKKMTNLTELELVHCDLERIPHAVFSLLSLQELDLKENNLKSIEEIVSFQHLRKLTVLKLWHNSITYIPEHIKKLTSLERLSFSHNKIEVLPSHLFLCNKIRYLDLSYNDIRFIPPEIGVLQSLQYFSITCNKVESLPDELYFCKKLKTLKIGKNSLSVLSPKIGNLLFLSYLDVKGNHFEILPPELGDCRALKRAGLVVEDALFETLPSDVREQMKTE
UniProt Q96A57: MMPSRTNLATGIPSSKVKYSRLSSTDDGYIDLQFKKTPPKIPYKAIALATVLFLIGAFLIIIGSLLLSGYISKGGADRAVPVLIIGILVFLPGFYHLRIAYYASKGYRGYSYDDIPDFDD
UniProt Q8WVD3: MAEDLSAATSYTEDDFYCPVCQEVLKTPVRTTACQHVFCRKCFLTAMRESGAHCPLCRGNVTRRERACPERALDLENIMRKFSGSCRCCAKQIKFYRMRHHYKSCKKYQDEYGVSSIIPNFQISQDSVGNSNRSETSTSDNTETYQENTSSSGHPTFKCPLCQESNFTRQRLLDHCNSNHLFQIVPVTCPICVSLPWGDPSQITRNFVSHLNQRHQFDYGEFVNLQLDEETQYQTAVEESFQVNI

Compound: Nc1ncnc2c1ncn2[C@@H]1O[C@H](COP(=O)(O)OP(=O)(O)OP(=O)(O)O)[C@@H](O)[C@H]1O [adenosine triphosphate]
Assay: NP40-soluble protein abundance relative to vehicle (solubility fold change) (ratio); higher = more soluble protein in presence of ATP
Procedure, shortened: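 Jurkat crude lysate prepared with a Dounce homogeniser was treated at eight concentrations spanning 0.1 to 10 mM, 10 min at room temperature then 3 min at 37 °C. Solubilisation with 0.8% NP40 and benzonase and ultracentrifugation preceded TMT labelling of the supernatant for LC-MS/MS. Fold change against the detergent-processed vehicle was determined per replicate from vsn-normalised intensities, across three independent experiments.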

Target	NP40-soluble protein abundance (concentration: 1mM)	NP40-soluble protein abundance (concentration: 2mM)	NP40-soluble protein abundance (concentration: 4mM)	NP40-soluble protein abundance (concentration: 6mM)	NP40-soluble protein abundance (concentration: 8mM)	NP40-soluble protein abundance (concentration: 10mM)
SCFD1 (UniProt Q8WVM8)	1 ± 0.019	1.01 ± 0.044	0.997 ± 0.036	0.98 ± 0.044	0.975 ± 0.029	0.994 ± 0.039
PIGK (UniProt Q92643)	1.03 ± 0.18	1.06 ± 0.059	1.02 ± 0.16	1.02 ± 0.07	1.03 ± 0.18	1.09 ± 0.07
UniProt Q8WWC4	1.04 ± 0.15	1.02 ± 0.11	1 ± 0.08	0.946 ± 0.11	1.07 ± 0.11	1.01 ± 0.061
PSPC1 (UniProt Q8WXF1)	1.01 ± 0.048	1.03 ± 0.05	1.01 ± 0.017	1.05 ± 0.013	1.043 ± 0.0083	1.03 ± 0.023
NDRG1 (UniProt Q92597)	0.934 ± 0.027	0.947 ± 0.032	0.924 ± 0.082	0.999 ± 0.086	0.93 ± 0.063	0.943 ± 0.095
UniProt Q8TBZ6	1.08 ± 0.045	1.08 ± 0.043	1.1 ± 0.031	1.18 ± 0.07	1.07 ± 0.03	1.09 ± 0.043
UniProt Q92890 and related entries	0.962 ± 0.022	0.95 ± 0.015	0.913 ± 0.019	0.934 ± 0.029	0.943 ± 0.036	0.921 ± 0.027
UniProt Q92900-2|Q92900	0.996 ± 0.021	1.01 ± 0.031	0.9872 ± 0.004	0.957 ± 0.06	0.997 ± 0.013	1 ± 0.023
UniProt Q8TCA0 and related entries	0.9485 ± 0.0055	0.959 ± 0.018	0.966 ± 0.042	0.932 ± 0.054	0.924 ± 0.0096	0.931 ± 0.039
UniProt Q92530 and related entries	0.964 ± 0.053	0.941 ± 0.026	0.943 ± 0.075	0.901 ± 0.052	0.915 ± 0.051	0.916 ± 0.029
FAR1 (UniProt Q8WVX9)	1.05 ± 0.093	1.06 ± 0.042	1.11 ± 0.042	1.05 ± 0.096	1.2 ± 0.083	1.17 ± 0.012
UniProt Q8WYL5	1.01 ± 0.051	0.854 ± 0.1	0.826 ± 0.025	0.921 ± 0.038	0.775 ± 0.059	0.87 ± 0.075
UniProt Q8TEW0 and related entries	0.988 ± 0.11	1.02 ± 0.11	1.03 ± 0.1	1.04 ± 0.11	1.03 ± 0.13	1.09 ± 0.15
UniProt Q92619	1.06 ± 0.021	1.067 ± 0.0063	1.03 ± 0.013	1.079 ± 0.0064	1.03 ± 0.02	1.07 ± 0.031
UniProt Q8WU76 and related entries	0.975 ± 0.1	0.983 ± 0.064	0.955 ± 0.033	0.914 ± 0.082	0.986 ± 0.063	0.946 ± 0.028
BRI3BP (UniProt Q8WY22)	0.959 ± 0.14	1.01 ± 0.12	1.05 ± 0.11	1.01 ± 0.12	0.975 ± 0.082	1.02 ± 0.14
UniProt Q8WVQ1 and related entries	1.03 ± 0.11	1.03 ± 0.15	1.01 ± 0.096	1 ± 0.095	0.992 ± 0.083	0.963 ± 0.093
ERCC4 (UniProt Q92889)	1.03 ± 0.053	1.05 ± 0.076	1.03 ± 0.083	0.997 ± 0.084	1.04 ± 0.029	1.01 ± 0.043
GGH (UniProt Q92820)	0.9257 ± 0.006	0.95 ± 0.044	0.9271 ± 0.006	0.938 ± 0.058	0.917 ± 0.029	0.898 ± 0.032
UniProt Q92674	1.1 ± 0.15	1.04 ± 0.2	1.3 ± 0.35	1.17 ± 0.37	1.35 ± 0.62	1.29 ± 0.38

Target	NP40-soluble protein abundance (concentration: 1mM)	NP40-soluble protein abundance (concentration: 2mM)	NP40-soluble protein abundance (concentration: 4mM)	NP40-soluble protein abundance (concentration: 6mM)	NP40-soluble protein abundance (concentration: 8mM)	NP40-soluble protein abundance (concentration: 10mM)
UniProt Q8TE02 and related entries	1.01 ± 0.068	0.924 ± 0.053	0.965 ± 0.067	0.85 ± 0.12	1.03 ± 0.15	1.04 ± 0.065
UniProt Q92622 and related entries	0.936 ± 0.078	0.932 ± 0.06	0.953 ± 0.081	0.935 ± 0.083	0.917 ± 0.079	0.924 ± 0.042
UniProt Q96AJ9 and related entries	0.944 ± 0.066	0.932 ± 0.04	0.962 ± 0.022	1 ± 0.053	0.954 ± 0.015	0.897 ± 0.1
PI4K2B (UniProt Q8TCG2)	1.01 ± 0.094	0.978 ± 0.13	1.05 ± 0.17	0.946 ± 0.13	0.991 ± 0.072	0.922 ± 0.12
UniProt Q8TE82	0.932 ± 0.083	0.925 ± 0.027	0.916 ± 0.049	0.904 ± 0.1	0.984 ± 0.12	0.966 ± 0.026
SLC44A1 (UniProt Q8WWI5)	0.957 ± 0.054	0.955 ± 0.032	0.935 ± 0.025	0.928 ± 0.06	0.944 ± 0.03	0.901 ± 0.026
UniProt Q96AG3 and related entries	0.99 ± 0.18	0.971 ± 0.12	0.956 ± 0.083	0.929 ± 0.029	0.901 ± 0.053	0.958 ± 0.085
UniProt Q92623	0.953 ± 0.096	0.948 ± 0.092	0.979 ± 0.02	0.976 ± 0.042	0.956 ± 0.045	0.895 ± 0.13
ANKS1A (UniProt Q92625)	0.906 ± 0.029	0.949 ± 0.017	0.943 ± 0.027	0.94 ± 0.035	0.927 ± 0.01	0.9618 ± 0.009
UniProt Q8WUI4 and related entries	1.01 ± 0.017	0.999 ± 0.038	1.02 ± 0.029	1.01 ± 0.023	0.9815 ± 0.008	0.999 ± 0.017
EXOC4 (UniProt Q96A65)	1.01 ± 0.02	0.989 ± 0.029	0.99 ± 0.024	0.976 ± 0.014	0.999 ± 0.041	0.995 ± 0.062
RFK (UniProt Q969G6)	0.998 ± 0.054	0.966 ± 0.074	0.944 ± 0.057	0.974 ± 0.074	0.947 ± 0.079	0.905 ± 0.043
UniProt Q969P0 and related entries	0.981 ± 0.02	0.977 ± 0.017	0.955 ± 0.029	0.974 ± 0.027	0.9583 ± 0.0042	0.982 ± 0.023
MYST3 (UniProt Q92794)	0.98 ± 0.084	1.07 ± 0.021	1.05 ± 0.12	0.992 ± 0.12	0.959 ± 0.043	1.02 ± 0.039
UniProt Q93074 and related entries	1.04 ± 0.022	1.01 ± 0.016	1.06 ± 0.04	1.05 ± 0.11	1.05 ± 0.056	1.04 ± 0.055
UniProt Q8TF05 and related entries	1.02 ± 0.038	0.983 ± 0.019	0.94 ± 0.036	0.948 ± 0.087	0.935 ± 0.033	0.899 ± 0.046
MAML1 (UniProt Q92585)	0.955 ± 0.077	0.94 ± 0.062	0.974 ± 0.043	0.968 ± 0.033	0.954 ± 0.11	0.923 ± 0.11
UniProt Q8WVT3	0.959 ± 0.055	0.9128 ± 0.0091	0.908 ± 0.018	0.926 ± 0.016	0.888 ± 0.032	0.908 ± 0.018
MZB1 (UniProt Q8WU39)	0.938 ± 0.13	0.9 ± 0.12	0.906 ± 0.053	0.9 ± 0.13	0.918 ± 0.018	0.844 ± 0.092
TMEM131 (UniProt Q92545)	1.06 ± 0.11	1.09 ± 0.091	1.08 ± 0.057	1.15 ± 0.21	1.01 ± 0.12	1.2 ± 0.082

Reprinted at random: two records from the list
Target	NP40-soluble protein abundance (concentration: 1mM)	NP40-soluble protein abundance (concentration: 2mM)	NP40-soluble protein abundance (concentration: 4mM)	NP40-soluble protein abundance (concentration: 6mM)	NP40-soluble protein abundance (concentration: 8mM)	NP40-soluble protein abundance (concentration: 10mM)
MZB1 (UniProt Q8WU39)	0.938 ± 0.13	0.9 ± 0.12	0.906 ± 0.053	0.9 ± 0.13	0.918 ± 0.018	0.844 ± 0.092
TMEM131 (UniProt Q92545)	1.06 ± 0.11	1.09 ± 0.091	1.08 ± 0.057	1.15 ± 0.21	1.01 ± 0.12	1.2 ± 0.082

The list continues:

Target	NP40-soluble protein abundance (concentration: 1mM)	NP40-soluble protein abundance (concentration: 2mM)	NP40-soluble protein abundance (concentration: 4mM)	NP40-soluble protein abundance (concentration: 6mM)	NP40-soluble protein abundance (concentration: 8mM)	NP40-soluble protein abundance (concentration: 10mM)
ISL2 (UniProt Q96A47)	0.963 ± 0.078	1.03 ± 0.065	0.986 ± 0.087	0.897 ± 0.1	0.932 ± 0.043	1.01 ± 0.11
LRRC8C (UniProt Q8TDW0)	1.03 ± 0.071	1.05 ± 0.07	1.07 ± 0.1	1.13 ± 0.13	1.16 ± 0.013	1.1 ± 0.086
UniProt Q92609 and related entries	0.986 ± 0.03	0.976 ± 0.016	0.974 ± 0.021	1.01 ± 0.011	0.97 ± 0.019	0.975 ± 0.028
GLMN (UniProt Q92990)	1.04 ± 0.057	1.02 ± 0.037	0.98 ± 0.074	0.994 ± 0.062	1.01 ± 0.046	0.926 ± 0.055
UniProt Q8WZA0 and related entries	0.92 ± 0.059	0.915 ± 0.059	0.925 ± 0.096	0.908 ± 0.025	0.906 ± 0.074	0.818 ± 0.11
CUL5 (UniProt Q93034)	1.05 ± 0.1	1.01 ± 0.09	1.01 ± 0.076	0.933 ± 0.1	1.02 ± 0.023	0.991 ± 0.067
ZNF384 (UniProt Q8TF68)	1.02 ± 0.065	1.05 ± 0.071	1.01 ± 0.098	1 ± 0.046	0.963 ± 0.058	0.986 ± 0.085
UniProt Q92997 and related entries	0.968 ± 0.05	1.07 ± 0.084	1.06 ± 0.17	0.98 ± 0.053	1.03 ± 0.012	1.04 ± 0.035
UniProt Q969E2 and related entries	0.996 ± 0.013	1.01 ± 0.087	1.12 ± 0.064	1.03 ± 0.082	1.01 ± 0.11	1 ± 0.071
UniProt Q96A57 and related entries	0.707 ± 0.18	0.687 ± 0.23	0.663 ± 0.27	0.664 ± 0.25	0.677 ± 0.27	0.626 ± 0.25
UniProt Q8TEX9 and related entries	0.935 ± 0.087	0.964 ± 0.051	0.939 ± 0.029	0.864 ± 0.086	0.913 ± 0.023	0.969 ± 0.046
OSTF1 (UniProt Q92882)	0.964 ± 0.024	0.961 ± 0.059	0.924 ± 0.045	0.952 ± 0.04	0.954 ± 0.063	0.915 ± 0.042
FIG4 (UniProt Q92562)	0.966 ± 0.012	0.951 ± 0.027	0.997 ± 0.11	0.838 ± 0.067	1.01 ± 0.08	0.988 ± 0.034
C18orf32 (UniProt Q8TCD1)	0.962 ± 0.16	0.868 ± 0.1	0.917 ± 0.071	0.999 ± 0.058	0.835 ± 0.034	0.799 ± 0.16
UniProt Q96B23-2	0.803 ± 0.099	0.759 ± 0.099	0.74 ± 0.09	0.779 ± 0.09	0.712 ± 0.062	0.711 ± 0.052
RNF138 (UniProt Q8WVD3)	1.06 ± 0.011	1.11 ± 0.025	1.09 ± 0.058	1.1 ± 0.034	1.04 ± 0.06	1.1 ± 0.035
UniProt Q92574 and related entries	1.01 ± 0.033	0.979 ± 0.029	1.02 ± 0.032	0.994 ± 0.027	0.939 ± 0.017	0.966 ± 0.065
EDEM1 (UniProt Q92611)	0.961 ± 0.063	1 ± 0.036	0.951 ± 0.088	0.959 ± 0.069	0.967 ± 0.015	0.965 ± 0.061
AKAP1 (UniProt Q92667)	0.992 ± 0.031	1 ± 0.014	0.981 ± 0.016	1.03 ± 0.048	0.971 ± 0.057	0.999 ± 0.027
UniProt Q92878 and related entries	1.07 ± 0.028	1.06 ± 0.013	1.04 ± 0.015	1.08 ± 0.026	1.04 ± 0.013	1.04 ± 0.019
